The target in assay [1] is T1, Flag-tagged CREB3L4 (cyclic AMP-responsive element-binding protein 3-like 4) (mouse) (UniProt Q9D2A5).
T1 sequence: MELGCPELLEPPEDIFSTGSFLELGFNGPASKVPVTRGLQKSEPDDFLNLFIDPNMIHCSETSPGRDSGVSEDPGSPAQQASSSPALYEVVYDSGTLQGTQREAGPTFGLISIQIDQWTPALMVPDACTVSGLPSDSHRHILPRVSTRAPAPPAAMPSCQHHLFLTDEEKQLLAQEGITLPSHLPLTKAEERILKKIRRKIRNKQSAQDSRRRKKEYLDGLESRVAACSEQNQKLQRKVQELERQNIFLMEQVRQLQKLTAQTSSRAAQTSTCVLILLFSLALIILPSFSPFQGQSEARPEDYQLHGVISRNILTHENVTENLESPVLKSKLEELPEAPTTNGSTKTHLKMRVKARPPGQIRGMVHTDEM
Put plainly: co-IP; NIH-3T3 cells co-transfected with Flag-tagged Creb3l4 and Cebpb, 48 h; lysis in 50 mM Tris pH 7.4, 150 mM NaCl, 0.2% Triton X-100, 0.3% NP-40; 800 μg lysate precipitated with anti-C/EBPβ or anti-CREB3L4 antibody (16 h) and protein G-agarose (2 h) at 4 °C; blot (anti-Flag in the domain mapping).

Chains of the proteins cited; added tags and fusions are not shown.
UniProt P28033: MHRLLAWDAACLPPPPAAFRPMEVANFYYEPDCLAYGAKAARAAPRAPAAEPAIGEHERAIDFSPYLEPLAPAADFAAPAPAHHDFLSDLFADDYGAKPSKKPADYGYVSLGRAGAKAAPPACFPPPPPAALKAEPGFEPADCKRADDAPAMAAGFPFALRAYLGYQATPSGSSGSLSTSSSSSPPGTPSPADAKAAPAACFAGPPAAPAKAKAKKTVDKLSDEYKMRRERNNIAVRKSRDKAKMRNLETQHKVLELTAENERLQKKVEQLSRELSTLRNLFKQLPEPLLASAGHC

Assay [2] deals with C/EBPβ (CCAAT/enhancer binding protein beta), from pcDNA3.1 mCebpb-V5/His (mouse) (UniProt P28033). The description is as above.
Assay [3] deals with Endogenous C/EBPβ of 3T3-L1 cells (mouse (endogenous in 3T3-L1)) (UniProt P28033). Nature of the assay: co-IP; 3T3-L1 cells, endogenous C/EBPβ (Supplementary Figure S5b); antibodies and direction not given.

These are yes or no findings as the source states them, for the method shown. In cells and extracts the contact can be indirect. Some binding calls cover weakened binding; strength is not graded here. For some of these results: Tags and fused reporters may be left off the sequences shown.

In the case of “C/EBPβ (CCAAT/enhancer binding protein beta), from pcDNA3.1 mCebpb-V5/His (from UniProt P28033 1-296)”, in assay [1], the binding result is given as “binds”.

B1: Flag-Creb3l4-BZIP (BZIP form of mouse CREB3L4) (domain or fragment, UniProt Q9D2A5 193-256)
chain: ILKKIRRKIRNKQSAQDSRRRKKEYLDGLESRVAACSEQNQKLQRKVQELERQNIFLMEQVRQL
B1: in assay [2], the binding entry is “binds”.

B2: Flag-tagged CREB3L4 (cyclic AMP-responsive element-binding protein 3-like 4) (protein, UniProt Q9D2A5 1-370)
chain: MELGCPELLEPPEDIFSTGSFLELGFNGPASKVPVTRGLQKSEPDDFLNLFIDPNMIHCSETSPGRDSGVSEDPGSPAQQASSSPALYEVVYDSGTLQGTQREAGPTFGLISIQIDQWTPALMVPDACTVSGLPSDSHRHILPRVSTRAPAPPAAMPSCQHHLFLTDEEKQLLAQEGITLPSHLPLTKAEERILKKIRRKIRNKQSAQDSRRRKKEYLDGLESRVAACSEQNQKLQRKVQELERQNIFLMEQVRQLQKLTAQTSSRAAQTSTCVLILLFSLALIILPSFSPFQGQSEARPEDYQLHGVISRNILTHENVTENLESPVLKSKLEELPEAPTTNGSTKTHLKMRVKARPPGQIRGMVHTDEM
With B2, in assay [2], the binding result is “binds”.

B3: CREB3L4 in 3T3-L1 cells (protein, UniProt Q9D2A5 1-370)
chain: MELGCPELLEPPEDIFSTGSFLELGFNGPASKVPVTRGLQKSEPDDFLNLFIDPNMIHCSETSPGRDSGVSEDPGSPAQQASSSPALYEVVYDSGTLQGTQREAGPTFGLISIQIDQWTPALMVPDACTVSGLPSDSHRHILPRVSTRAPAPPAAMPSCQHHLFLTDEEKQLLAQEGITLPSHLPLTKAEERILKKIRRKIRNKQSAQDSRRRKKEYLDGLESRVAACSEQNQKLQRKVQELERQNIFLMEQVRQLQKLTAQTSSRAAQTSTCVLILLFSLALIILPSFSPFQGQSEARPEDYQLHGVISRNILTHENVTENLESPVLKSKLEELPEAPTTNGSTKTHLKMRVKARPPGQIRGMVHTDEM
Turning to B3, in assay [3], the binding result is reported as “binds”.

The record behind these values is article PMC4260748.
